Positions count from the first letter of the chain named. Numbers in names are those of the source. Results are given in words; binding and its absence hold for the method and conditions named. A result given as binding can be weak or reduced; the word gives no strength. Where a sequence is shown, tags or fusion partners need not be part of it. For some of these results: Binding seen in cells or lysates may run through a third protein.

The values below come from article PMC6026704.

Assay [1] concerns the target T1, FL-SIKE-6xHis (pET26b, C-terminal 6xHis tag) (human) (UniProt Q9BRV8).
T1 sequence: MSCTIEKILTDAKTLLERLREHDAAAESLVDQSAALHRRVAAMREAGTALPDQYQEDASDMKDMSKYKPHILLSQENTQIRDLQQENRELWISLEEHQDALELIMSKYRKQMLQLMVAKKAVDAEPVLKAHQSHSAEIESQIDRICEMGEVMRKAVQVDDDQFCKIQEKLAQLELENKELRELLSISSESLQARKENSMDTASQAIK
The assay can be described thus: pull-down; in vitro precipitation (IVP): 6xHis-tagged SIKE (8 uM) pre-incubated with the partner (4-11.2 uM; molar ratios 1:0.5, 1:1, 1:1.4) in 50 mM NaH2PO4 pH 8, 0.3 M NaCl at 4 °C, precipitated with Ni-NTA agarose at RT, washed with 50 mM imidazole, eluted with 250 mM imidazole; SDS-PAGE of bound and unbound samples; both purified.

The target of assay [2] is EGFP-α-actinin (pEGFP-α-actinin). The assay can be described thus: co-IP; reciprocal immunoprecipitation: EGFP- or mCherry-tagged cytoskeletal protein precipitated from co-transfected HEK293 lysate (500 ug protein) with anti-GFP or anti-mCherry antibody cross-linked to protein G Dynabeads, overnight at 4 °C, washed with TBS/0.1% Tween-20; blot for FLAG or HA (SIKE); basal or dsRNA (50 ug/mL pI:pC, 12 h) stimulated cells.

The target of assay [3] is mCherry tubulin (pmCherry-α-tubulin). Described as above.

α-actinin (Cytoskeleton, Inc.): the binding result in assay [1] is recorded as “binds”.

B1: Suppressor of IKKepsilon (SIKE), WT, FLAG-tagged (pCMVFLAG5a SIKE 6xHis) (protein, UniProt Q9BRV8-1 1-207)
chain: T1 sequence
B1: the binding entry in assay [2] and in assay [3] was “binds” each time.

B2: phosphomimetic SIKE (pCMVHA-SIKE S6E (S133, 185, 187, 188, 190, 198E)) (protein, UniProt Q9BRV8-1 1-207)
chain: T1 sequence with S133E, S185E, S187E, S188E, S190E, S198E
For B2, the binding result in assay [3] is “binds”.
